## Assay results

Source: PubChem BioAssay AID1224904 (Broad Institute, 2016).

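Selective DUX4 reporter inhibition in doxycycline-induced 293T-iDUX4 cells, scored as Gaussia percent activity minus Italica percent activity, after a 24-hour treatment.
The test concentration is not given here.
Percent difference between the Gaussia and Italica channels; more negative values mean more selective suppression of the DUX4 reporter, and higher values mean less activity.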

Values are in %.
How 0% and 100% were set is not given here.
Common to all entries: measured here: selective DUX4 reporter inhibition.
This is a side read-out of the assay, for part of the compounds, not drawn at random.

Compound,Gaussia minus Italica difference (%)
CC(C)CC#Cc1ccc([C@@H]2[C@H](CO)N3C(=O)CN(C(=O)c4ccc5c(c4)OCO5)C[C@@H]23)cc1,-1.929
COC(=O)C[C@H]1C[C@@H]2c3cc(NC(=O)Nc4ccc(C(F)(F)F)cc4)ccc3O[C@@H]2[C@@H](CO)O1,-8.047
CN(C)C(=O)c1cc2c(c(-c3cccc(C4=CCCCC4)c3)n1)[C@H](CCO)N(S(C)(=O)=O)C2,-9.593
O=C(C[C@@H]1CC[C@H]2[C@@H](COC[C@@H](O)CN2Cc2cccc(Cl)c2)O1)N1CCCCC1,-7.264
COc1ccc2c3c(n(C)c2c1)[C@H](CO)N(Cc1cccc(F)c1)CC31CCN(C)CC1,-2.034
O=C(c1ccc(F)cc1)N1CC(=O)N2[C@H](CO)[C@H](c3ccc(C#CCC4CCCC4)cc3)[C@@H]2C1,-9.546
COc1ccccc1NC(=O)N1CC(=O)N2[C@H](CO)[C@@H](c3ccc(-c4cccc(C)c4)cc3)[C@@H]2C1,13.28
COc1ccc(C#Cc2cccc(-c3nc(C(=O)NCCCN4CCOCC4)cc4c3[C@@H](CCO)N(S(=O)C(C)(C)C)C4)c2)cc1OC (stereo partly specified),11.92
CCc1sc(N2[C@@H](C#N)[C@@H](c3ccccc3-c3cccc(F)c3)[C@@H]2CO)nc1C,-2.327
CN1c2ccc(-c3ccccc3)cc2[C@H]2[C@H](CCN2C(=O)Cc2ccccc2)[C@H]1CO,15.93
O=C(C[C@H]1C[C@@H]2c3cc(NS(=O)(=O)c4ccc(F)cc4)ccc3O[C@@H]2[C@@H](CO)O1)NCCc1ccccc1,-11.62
O=C(Nc1cccc(F)c1)N1CCCCN2[C@H](CO)[C@H](c3ccc(C#Cc4cccnc4)cc3)[C@H]2C1,-12.32
C[C@@H]1CN([C@@H](C)CO)C(=O)c2c(c3ccccc3n2C)-c2ccccc2CO[C@@H]1CN(C)S(=O)(=O)c1ccc(Cl)cc1,-13.89
COc1ccc2c3c(n(C)c2c1)[C@@H](CO)N(C(C)=O)CC31CN(Cc2ccccc2OC)C1,10.9
COc1cccc(CN2[C@H](CO)[C@H](c3ccccc3)C23CN(C(=O)C2CCC2)C3)c1,-12.5
CC(C)NC(=O)N1[C@@H](CO)[C@@H](c2ccccc2)C12CN(Cc1cc(F)cc(F)c1)C2,-5.422
OC[C@@H]1Nc2ccc(C#Cc3ccc(F)cc3)cc2[C@H]2[C@@H]1CCN2Cc1nccs1,-5.016
CC(C)C#Cc1ccc([C@H]2[C@@H](CO)N3CCCCN(C(=O)c4ccc(F)cc4)C[C@@H]23)cc1,1.532
COc1cc(CN2C[C@@H]3N[C@H](C2)C3c2ccc(-c3cccc(OC)c3)cc2)cc(OC)c1 (stereo partly specified),-2.053
C[C@H]1CN([C@@H](C)CO)C(=O)c2c(c3ccccc3n2C)-c2ccccc2CO[C@@H]1CN(C)Cc1ccc2c(c1)OCO2,-15.92
O=C(Nc1ccc2c(c1)[C@@H]1C[C@@H](CC(=O)N3CCc4ccccc4C3)O[C@@H](CO)[C@@H]1O2)NC1CCCC1,-7.251
COc1ccc(-c2ccc(C3[C@@H]4CN(S(=O)(=O)c5cccc(C)c5)C[C@H]3N4)cc2)cc1 (stereo partly specified),-4.74
CO[C@@H]1CN(C)C(=O)c2ccc(NC(=O)Nc3ccc(F)cc3)cc2OC[C@@H](C)N(C(=O)c2ccc(F)cc2)C[C@H]1C,-3.786
COc1ccccc1S(=O)(=O)N(C)C[C@@H]1OCc2ccccc2-c2c(n(C)c3ccccc23)C(=O)N([C@H](C)CO)C[C@H]1C,6.719
C[C@H](O)C#Cc1ccc([C@@H]2[C@@H](CO)N3CCCCN(S(=O)(=O)Cc4ccccc4)C[C@@H]23)cc1,9.179
O=C(C[C@H]1CC[C@@H]2[C@H](COC[C@H](O)CN2CCC(F)(F)F)O1)NCc1ccc(Oc2ccccc2)cc1,-7.701
CO[C@@H]1CN(C)C(=O)c2ccc(NC(=O)c3nc4ccccc4s3)cc2OC[C@H](C)N(Cc2cccnc2)C[C@H]1C,-7.108
N#C[C@H]1[C@H](c2ccccc2C2=CCCC2)[C@H](CO)N1C(=O)NC1CCCCC1,-3.492
Cc1ccccc1S(=O)(=O)N1CC[C@@H]2[C@H](CO)Nc3ccc(-c4ccc(F)cc4)cc3[C@@H]21,-14.11
Cc1ccc(S(=O)(=O)N2CC[C@H]3[C@H](CO)Nc4ccc(-c5ccccc5F)cc4[C@H]32)cc1,-7.46
O=C(C[C@@H]1CC[C@@H]2[C@H](COC[C@H](O)CN2Cc2cccc(C(F)(F)F)c2)O1)NCCc1ccccc1,-4.99
O=C(c1ccc(F)cc1)N1C[C@@H]2N[C@H](C1)C2c1ccc(/C=C/c2ccccc2)cc1 (stereo partly specified),-16.63
C[C@@H]1CN([C@@H](C)CO)C(=O)c2ccccc2-c2ccccc2CO[C@@H]1CN(C)Cc1ccccc1C(F)(F)F,-14.36
CN1c2ccc(-c3ccccc3)cc2[C@H]2[C@H](CCN2S(=O)(=O)c2ccccc2F)[C@H]1CO,-2.497
CN(C)C(=O)c1ccc(-c2ccc(C3[C@@H]4CN(Cc5ccc6c(c5)OCO6)C[C@H]3N4)cc2)cc1 (stereo partly specified),-10.06
O=C(Nc1ccccc1F)N1CCCCN2[C@H](CO)[C@H](c3ccc(C#Cc4cccnc4)cc3)[C@@H]2C1,-11.81
C[C@H]1CN([C@@H](C)CO)C(=O)c2ccccc2-c2ccccc2CO[C@H]1CN(C)S(=O)(=O)c1ccc(C#N)cc1,-8.411
O=C(Cc1ccncc1)Nc1ccc2c(c1)[C@@H]1C[C@@H](CC(=O)NC3CCCCC3)O[C@H](CO)[C@@H]1O2,13.82
CC(C)COC(=O)N(C)C[C@H]1OCc2ccccc2-c2c(n(C)c3ccccc23)C(=O)N([C@H](C)CO)C[C@@H]1C,-22.8
Cc1cccc(-c2ccc([C@@H]3[C@H]4CN(C(=O)c5ccccc5)CC(=O)N4[C@H]3CO)cc2)c1,1.145
COc1ccccc1CN1C[C@@H]2N[C@H](C1)C2c1ccc(-c2ccc(C#N)cc2)cc1 (stereo partly specified),-24.94
CCCN1C[C@@H](C)[C@@H](OC)CN(C)C(=O)c2cc(NC(=O)C3CCC3)ccc2OC[C@@H]1C,-15.94
Cc1ccccc1S(=O)(=O)N1CC[C@H]2[C@H](CO)Nc3ccc(C#Cc4ccccc4)cc3[C@H]21,-15.49
CC(C)NC(=O)N1[C@H](CO)[C@@H](c2ccccc2)C12CN(Cc1cc(F)cc(F)c1)C2,-4.645
C[C@H]1CN([C@@H](C)CO)C(=O)CCCn2nncc2CO[C@@H]1CN(C)Cc1ccc(-c2ccccc2)cc1,-15.39
O=C(C[C@@H]1C[C@H]2c3cc(NC(=O)Nc4ccc(C(F)(F)F)cc4)ccc3O[C@H]2[C@H](CO)O1)NC1CCCCC1,-5.245
OC[C@@H]1[C@@H](c2ccccc2)C2(CN(CCC(F)(F)F)C2)N1Cc1ccccc1,-8.429
O=C(C[C@H]1CC[C@@H]2[C@H](COC[C@H](O)CN2CC2CCCCC2)O1)NCc1ccc(Cl)cc1,-2.784
Cc1ccccc1S(=O)(=O)N1CC(=O)N2[C@H](C1)[C@@H](c1ccc(C#CCC3CCCC3)cc1)[C@@H]2CO,2.318
CCc1cnc(N2[C@H](CO)[C@@H](c3ccccc3-c3ccccc3C)[C@@H]2C#N)s1,1.236
O=C(c1cccnc1)N1CC(=O)N2[C@H](CO)[C@H](c3ccc(C#CCC4CCCC4)cc3)[C@H]2C1,2.268
COc1ccc2c3c(n(C)c2c1)[C@@H](CO)NCC31CN(C(=O)c2ccc(F)cc2)C1,-10.37
COc1ccccc1C#Cc1ccc([C@@H]2[C@H](CO)N3CCCCN(C(=O)C4CCC4)C[C@@H]23)cc1,-6.806
CN1c2ccc(-c3ccccc3)cc2[C@H]2[C@H](CCN2C(=O)c2ccccc2F)[C@H]1CO,-5.839
COc1ccccc1S(=O)(=O)N1C[C@@H]2N[C@H](C1)C2c1ccc(-c2cccnc2)cc1 (stereo partly specified),-18.77

Once more, the final 6:

- CCc1cnc(N2[C@H](CO)[C@@H](c3ccccc3-c3ccccc3C)[C@@H]2C#N)s1 | Gaussia minus Italica difference 1.236%
- O=C(c1cccnc1)N1CC(=O)N2[C@H](CO)[C@H](c3ccc(C#CCC4CCCC4)cc3)[C@H]2C1 | Gaussia minus Italica difference 2.268%
- COc1ccc2c3c(n(C)c2c1)[C@@H](CO)NCC31CN(C(=O)c2ccc(F)cc2)C1 | Gaussia minus Italica difference -10.37%
- COc1ccccc1C#Cc1ccc([C@@H]2[C@H](CO)N3CCCCN(C(=O)C4CCC4)C[C@@H]23)cc1 | Gaussia minus Italica difference -6.806%
- CN1c2ccc(-c3ccccc3)cc2[C@H]2[C@H](CCN2C(=O)c2ccccc2F)[C@H]1CO | Gaussia minus Italica difference -5.839%
- COc1ccccc1S(=O)(=O)N1C[C@@H]2N[C@H](C1)C2c1ccc(-c2cccnc2)cc1 (stereo partly specified) | Gaussia minus Italica difference -18.77%